Literature values, collected in patent US8597666B2, “Compressed solid dosage form manufacturing process well-suited for use with drugs of low aqueous solubility and compressed solid dosage forms made thereby” (Teva Pharmaceutical Industries, Ltd., priority 2004, dated 2013).
At least one structure is not confirmed: it was looked up by name or label, or the drawing left a doubt.

Conditions: fine starch particles added to tablets; cited from earlier work

CCC1(c2ccccc2)C(=O)NC(=O)NC1=O [phenobarbital]
dissolution rate of phenobarbital from tablets: increased the dissolution rate
